Measurements reported in patent US20230079687A1, “ALKYLRESORCINOL HOMOLOGUES AS ANTIOXIDANTS” (The Penn State Research Foundation, priority 2021, published 2023).
Some results were stated once for a whole list of compounds, not compound by compound.

Experiment: Formation of headspace hexanal in antioxidant-treated crackers during storage
Details: 153 μmol antioxidant in crackers, autoxidized at 55° C. in the absence of light, FIG. 2
Method: Based on the concentrations of the individual AR stock solutions previously determined, an appropriate volume, containing 153 μmol of the respective individual AR homologue, was measured into plastic centrifuge tubes to prepare individual AR homologue treatments. A treatment containing a mixture of the individual AR homologues, at their natural abundance in rye bran, was prepared by combining 25.3% of C17:0, 32.0% of C19:0, 22.6% of C21:0, 12.5% of C23:0, and 7.6% of C25:0. The same procedure was carried out with 10 mM stock solutions of orcinol, α-tocopherol, and butylated hydroxytoluene (BHT) and all treatments were dried under a stream of nitrogen. […]
Antioxidant-treated ISO was melted at 90° C. for 10 minutes and mixed in a stand mixer (KSM95, KitchenAid, Benton Harbor, Mich., U.S.) using a beater blade for 1 minute (speed 2). […] Crackers were analyzed for lipid hydroperoxides, headspace hexanal, and AR loss every 5 days for day 0-50, every 10 days for day 51-100, and every 20 days for the remainder of the storage time.
Cracker samples were prepared for GC-MS analysis by adding 10 μL of 100 mg/L 2-methypentanal (internal standard) in methanol directly through the capped headspace vial's septum. […] Detection and quantification of hexanal and 2-methylpentanal was achieved using a single quadrupole mass spectrometer (5977B, Agilent, Santa Clara, Calif., U.S.) coupled to the GC. […]

SMILES: Cc1cc(C(C)(C)C)c(O)c(C(C)(C)C)c1 [BHT, butylated hydroxytoluene]
- storage day at which headspace hexanal began to increase (end of lag phase): > 120 days
